This is one part of the list.
compound: NC(=O)c1cnc(N[C@@H]2CCCC[C@@H]2N)nc1Nc1cccc(-n2nccn2)c1; assay: log2 fold change, soluble protein after heating vs DMSO (PISA); higher = thermal stabilisation; K562 lysate, 10 uM; active = over 0.2 and 3.5 SD of the protein, either way, in both replicates (recomputed)
Summary of the method: (§1)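 Values give the log-two fold change in thermal stability against solvent controls, from duplicates. Crude K562 extract at 1 mg/mL protein, made by dounce homogenisation in PBS pH 7.4 with 1 mM MgCl2, was treated with 10 μM compound for 30 min. After 3 min heating across 48°C-58°C, aliquots were pooled, adjusted to 0.5% NP-40 at 4°C and centrifuged at 21,000xg for 90 min. The supernatant was measured by TMTpro 16plex LC-MS/MS with channel sums equalised.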

Protein sequences, listed by entry. Tags and fused reporters are not part of them. Lines headed by an entry give the natural chain unless they say otherwise; changes in a name come on top.
UniProt Q86X95: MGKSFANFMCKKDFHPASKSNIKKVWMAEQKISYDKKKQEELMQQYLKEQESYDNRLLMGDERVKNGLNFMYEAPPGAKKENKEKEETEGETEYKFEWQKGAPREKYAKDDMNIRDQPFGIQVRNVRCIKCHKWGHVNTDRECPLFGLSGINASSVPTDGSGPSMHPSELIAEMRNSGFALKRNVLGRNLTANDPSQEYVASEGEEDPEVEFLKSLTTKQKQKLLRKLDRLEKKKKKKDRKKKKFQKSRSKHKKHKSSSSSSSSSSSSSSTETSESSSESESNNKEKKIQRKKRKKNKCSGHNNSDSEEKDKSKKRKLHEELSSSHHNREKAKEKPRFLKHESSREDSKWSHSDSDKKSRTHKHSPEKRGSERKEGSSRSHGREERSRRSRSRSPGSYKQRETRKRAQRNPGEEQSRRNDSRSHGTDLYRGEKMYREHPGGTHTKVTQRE
UniProt P56277: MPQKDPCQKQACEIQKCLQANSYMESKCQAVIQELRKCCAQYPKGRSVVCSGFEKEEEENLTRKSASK
UniProt P51797: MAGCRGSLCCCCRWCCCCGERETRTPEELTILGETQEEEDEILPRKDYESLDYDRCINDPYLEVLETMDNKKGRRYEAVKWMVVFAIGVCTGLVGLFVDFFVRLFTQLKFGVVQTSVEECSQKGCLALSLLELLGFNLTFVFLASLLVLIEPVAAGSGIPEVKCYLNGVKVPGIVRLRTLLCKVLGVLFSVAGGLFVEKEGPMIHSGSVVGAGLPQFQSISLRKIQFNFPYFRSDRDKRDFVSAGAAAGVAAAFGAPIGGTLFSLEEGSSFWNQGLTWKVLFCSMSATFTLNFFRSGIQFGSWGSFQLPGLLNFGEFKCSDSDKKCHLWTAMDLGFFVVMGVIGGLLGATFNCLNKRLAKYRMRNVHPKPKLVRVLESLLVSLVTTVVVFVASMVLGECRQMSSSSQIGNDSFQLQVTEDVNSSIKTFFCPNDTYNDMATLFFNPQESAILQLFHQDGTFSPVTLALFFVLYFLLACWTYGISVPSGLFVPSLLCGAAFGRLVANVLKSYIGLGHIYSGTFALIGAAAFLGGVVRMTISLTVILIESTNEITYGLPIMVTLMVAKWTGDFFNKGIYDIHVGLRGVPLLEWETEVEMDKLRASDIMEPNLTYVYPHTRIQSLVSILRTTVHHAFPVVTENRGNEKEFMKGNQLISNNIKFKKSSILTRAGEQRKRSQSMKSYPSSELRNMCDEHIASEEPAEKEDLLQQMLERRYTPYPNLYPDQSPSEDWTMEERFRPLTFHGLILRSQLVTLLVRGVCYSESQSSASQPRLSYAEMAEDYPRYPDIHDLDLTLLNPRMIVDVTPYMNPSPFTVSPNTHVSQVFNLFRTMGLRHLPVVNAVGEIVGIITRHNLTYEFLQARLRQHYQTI
UniProt Q9UBR5: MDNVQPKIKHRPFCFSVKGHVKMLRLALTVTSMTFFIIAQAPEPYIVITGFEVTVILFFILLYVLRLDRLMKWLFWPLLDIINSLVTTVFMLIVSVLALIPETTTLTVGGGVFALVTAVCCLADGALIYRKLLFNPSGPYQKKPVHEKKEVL
UniProt Q15846: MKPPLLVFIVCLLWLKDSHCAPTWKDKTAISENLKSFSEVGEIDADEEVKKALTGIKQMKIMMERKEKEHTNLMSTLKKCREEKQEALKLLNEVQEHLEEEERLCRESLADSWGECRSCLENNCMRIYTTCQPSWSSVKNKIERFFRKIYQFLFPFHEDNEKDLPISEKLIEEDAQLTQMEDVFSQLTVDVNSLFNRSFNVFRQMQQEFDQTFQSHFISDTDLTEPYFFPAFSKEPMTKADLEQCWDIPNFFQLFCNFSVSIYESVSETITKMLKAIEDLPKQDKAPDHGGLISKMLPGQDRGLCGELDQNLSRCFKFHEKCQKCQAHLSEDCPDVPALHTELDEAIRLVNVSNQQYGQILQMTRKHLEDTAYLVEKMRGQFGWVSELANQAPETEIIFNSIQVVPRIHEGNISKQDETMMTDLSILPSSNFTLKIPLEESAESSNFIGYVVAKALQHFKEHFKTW
UniProt Q9Y240: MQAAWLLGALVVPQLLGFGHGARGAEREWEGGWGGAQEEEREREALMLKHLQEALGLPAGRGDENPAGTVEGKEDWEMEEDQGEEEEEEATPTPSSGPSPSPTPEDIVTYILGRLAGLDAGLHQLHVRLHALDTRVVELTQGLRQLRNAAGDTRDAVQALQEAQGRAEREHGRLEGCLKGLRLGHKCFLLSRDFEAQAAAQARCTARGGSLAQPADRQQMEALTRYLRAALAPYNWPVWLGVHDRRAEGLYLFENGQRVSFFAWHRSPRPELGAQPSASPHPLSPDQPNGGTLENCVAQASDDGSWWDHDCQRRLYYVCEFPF
UniProt Q9Y3Y2: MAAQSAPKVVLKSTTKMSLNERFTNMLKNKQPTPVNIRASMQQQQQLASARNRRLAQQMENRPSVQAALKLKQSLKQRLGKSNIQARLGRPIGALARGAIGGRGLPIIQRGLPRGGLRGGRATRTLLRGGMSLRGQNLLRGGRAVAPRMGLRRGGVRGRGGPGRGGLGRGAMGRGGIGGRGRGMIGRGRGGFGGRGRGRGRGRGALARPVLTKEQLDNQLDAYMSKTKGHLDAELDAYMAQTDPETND
UniProt Q07065: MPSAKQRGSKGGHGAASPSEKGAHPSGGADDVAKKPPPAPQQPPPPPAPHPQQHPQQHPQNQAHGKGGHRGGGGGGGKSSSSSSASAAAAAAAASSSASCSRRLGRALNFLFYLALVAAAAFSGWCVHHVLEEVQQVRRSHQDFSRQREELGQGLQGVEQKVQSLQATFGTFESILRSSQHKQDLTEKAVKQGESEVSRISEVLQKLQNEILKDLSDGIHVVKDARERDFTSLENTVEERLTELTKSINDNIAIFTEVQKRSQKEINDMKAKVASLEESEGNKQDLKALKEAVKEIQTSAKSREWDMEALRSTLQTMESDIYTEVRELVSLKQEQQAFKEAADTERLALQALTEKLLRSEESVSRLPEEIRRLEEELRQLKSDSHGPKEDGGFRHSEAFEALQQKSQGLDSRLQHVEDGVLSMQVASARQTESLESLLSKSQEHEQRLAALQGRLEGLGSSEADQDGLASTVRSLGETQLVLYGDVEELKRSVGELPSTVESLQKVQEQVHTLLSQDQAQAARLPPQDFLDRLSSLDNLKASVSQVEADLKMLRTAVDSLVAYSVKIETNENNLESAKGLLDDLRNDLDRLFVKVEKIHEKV
UniProt P49761: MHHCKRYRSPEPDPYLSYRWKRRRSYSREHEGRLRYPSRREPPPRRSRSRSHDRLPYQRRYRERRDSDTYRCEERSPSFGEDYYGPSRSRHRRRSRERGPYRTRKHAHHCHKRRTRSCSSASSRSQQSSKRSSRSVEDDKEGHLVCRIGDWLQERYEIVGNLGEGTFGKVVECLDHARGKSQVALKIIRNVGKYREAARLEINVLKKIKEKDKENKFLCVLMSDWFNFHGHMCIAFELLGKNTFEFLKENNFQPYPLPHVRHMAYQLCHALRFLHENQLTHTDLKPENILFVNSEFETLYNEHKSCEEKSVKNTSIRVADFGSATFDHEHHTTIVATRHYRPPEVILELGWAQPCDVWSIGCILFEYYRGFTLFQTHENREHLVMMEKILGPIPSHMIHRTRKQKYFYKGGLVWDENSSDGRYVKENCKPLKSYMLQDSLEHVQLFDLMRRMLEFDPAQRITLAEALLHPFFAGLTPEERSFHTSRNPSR
UniProt Q9BRQ6: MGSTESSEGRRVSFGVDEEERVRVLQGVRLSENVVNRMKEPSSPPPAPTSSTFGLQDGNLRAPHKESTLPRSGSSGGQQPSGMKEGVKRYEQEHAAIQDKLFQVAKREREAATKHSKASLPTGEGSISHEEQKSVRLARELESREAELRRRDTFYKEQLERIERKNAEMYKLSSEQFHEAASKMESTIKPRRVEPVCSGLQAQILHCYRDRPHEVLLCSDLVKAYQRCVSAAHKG
UniProt P62633: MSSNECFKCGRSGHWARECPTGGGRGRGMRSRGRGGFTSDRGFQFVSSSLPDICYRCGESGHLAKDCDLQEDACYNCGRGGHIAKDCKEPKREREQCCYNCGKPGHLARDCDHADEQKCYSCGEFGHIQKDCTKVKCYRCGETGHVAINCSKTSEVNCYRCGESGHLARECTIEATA
UniProt Q9Y4C5: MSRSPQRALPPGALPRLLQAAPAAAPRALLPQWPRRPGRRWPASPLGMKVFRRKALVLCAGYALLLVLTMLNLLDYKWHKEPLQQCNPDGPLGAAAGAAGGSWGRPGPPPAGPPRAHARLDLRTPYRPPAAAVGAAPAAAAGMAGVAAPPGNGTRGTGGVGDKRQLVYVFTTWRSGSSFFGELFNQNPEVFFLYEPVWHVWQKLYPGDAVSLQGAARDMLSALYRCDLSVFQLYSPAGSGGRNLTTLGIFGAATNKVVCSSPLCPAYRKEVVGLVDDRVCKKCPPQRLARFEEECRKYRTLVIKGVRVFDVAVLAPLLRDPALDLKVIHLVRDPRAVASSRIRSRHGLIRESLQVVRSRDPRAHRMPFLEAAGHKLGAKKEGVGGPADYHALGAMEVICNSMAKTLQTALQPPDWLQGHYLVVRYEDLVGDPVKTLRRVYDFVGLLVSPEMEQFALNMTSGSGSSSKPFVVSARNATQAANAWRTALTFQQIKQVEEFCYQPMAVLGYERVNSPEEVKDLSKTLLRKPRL
UniProt O75503: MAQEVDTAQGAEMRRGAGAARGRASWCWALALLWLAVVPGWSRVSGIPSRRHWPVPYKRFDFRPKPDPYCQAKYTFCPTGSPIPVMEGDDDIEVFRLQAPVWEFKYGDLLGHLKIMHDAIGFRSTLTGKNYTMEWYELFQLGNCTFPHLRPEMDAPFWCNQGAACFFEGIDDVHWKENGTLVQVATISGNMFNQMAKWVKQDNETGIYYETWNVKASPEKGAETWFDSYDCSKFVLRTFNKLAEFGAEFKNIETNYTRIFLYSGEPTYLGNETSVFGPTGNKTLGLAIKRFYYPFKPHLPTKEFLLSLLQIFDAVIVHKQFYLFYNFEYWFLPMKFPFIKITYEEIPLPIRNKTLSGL
UniProt Q99967: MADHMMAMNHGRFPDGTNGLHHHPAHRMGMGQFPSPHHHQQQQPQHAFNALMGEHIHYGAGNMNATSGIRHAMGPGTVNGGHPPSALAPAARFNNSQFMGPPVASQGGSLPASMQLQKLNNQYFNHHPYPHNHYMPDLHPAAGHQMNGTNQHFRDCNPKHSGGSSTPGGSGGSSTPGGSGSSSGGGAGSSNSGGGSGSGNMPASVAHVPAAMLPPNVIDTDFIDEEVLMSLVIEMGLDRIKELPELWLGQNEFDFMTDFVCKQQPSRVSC
UniProt O43529: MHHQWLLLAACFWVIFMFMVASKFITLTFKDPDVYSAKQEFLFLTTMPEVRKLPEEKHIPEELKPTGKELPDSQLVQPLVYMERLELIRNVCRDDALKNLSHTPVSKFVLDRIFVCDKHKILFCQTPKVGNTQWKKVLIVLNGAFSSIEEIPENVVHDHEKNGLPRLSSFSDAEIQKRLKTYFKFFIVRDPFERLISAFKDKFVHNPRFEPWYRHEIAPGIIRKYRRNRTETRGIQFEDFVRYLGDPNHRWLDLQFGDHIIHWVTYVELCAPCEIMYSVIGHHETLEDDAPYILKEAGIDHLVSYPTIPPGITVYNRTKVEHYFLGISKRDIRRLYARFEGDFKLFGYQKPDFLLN
UniProt Q8IZ52: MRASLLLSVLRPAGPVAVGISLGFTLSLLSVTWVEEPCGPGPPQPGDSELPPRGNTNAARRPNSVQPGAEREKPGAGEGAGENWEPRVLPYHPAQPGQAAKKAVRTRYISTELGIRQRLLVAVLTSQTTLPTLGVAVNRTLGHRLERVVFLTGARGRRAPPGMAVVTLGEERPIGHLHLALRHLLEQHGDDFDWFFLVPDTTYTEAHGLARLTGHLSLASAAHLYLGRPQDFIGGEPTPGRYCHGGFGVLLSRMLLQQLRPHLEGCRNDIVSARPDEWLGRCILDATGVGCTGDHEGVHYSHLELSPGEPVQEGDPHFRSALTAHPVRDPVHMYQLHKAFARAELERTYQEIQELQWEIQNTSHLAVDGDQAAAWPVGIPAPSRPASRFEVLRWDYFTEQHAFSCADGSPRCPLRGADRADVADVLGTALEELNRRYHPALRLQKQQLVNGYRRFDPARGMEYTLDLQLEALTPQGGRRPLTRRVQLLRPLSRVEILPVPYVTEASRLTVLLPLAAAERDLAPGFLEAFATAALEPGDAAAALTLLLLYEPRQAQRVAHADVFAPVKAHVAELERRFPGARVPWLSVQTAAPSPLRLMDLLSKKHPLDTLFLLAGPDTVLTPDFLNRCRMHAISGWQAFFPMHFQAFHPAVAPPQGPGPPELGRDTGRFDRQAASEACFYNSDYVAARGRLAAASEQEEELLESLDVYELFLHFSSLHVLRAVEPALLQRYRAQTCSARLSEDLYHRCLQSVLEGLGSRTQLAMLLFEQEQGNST

log2 fold change, inactive:
CLIC6 (UniProt Q96NY7) 0.05, CIR1 (UniProt Q86X95) 0.1, CMC4 (UniProt P56277) 0.045, CHMP4A (UniProt H0YIN6) 0.066, CLIP2 (UniProt Q9UDT6) -0.018, CLCN6 isoform 5 (UniProt P51797) 0.011, CLCN5 isoform 2 (UniProt P51795) 0.305, CKLF (UniProt Q9UBR5) -0.005, CLCN2 (UniProt P51788) 0.067, CLUL1 (UniProt Q15846) -0.134, CLEC11A (UniProt Q9Y240) -0.133, CHTOP isoform 3 (UniProt Q9Y3Y2) -0.057, CKAP4 (UniProt Q07065) -0.008, CLK3 (UniProt P49761) 0.016, CHCHD6 (UniProt Q9BRQ6) 0.097, CNBP (UniProt P62633) -0.076, CHST2 (UniProt Q9Y4C5) 0.104, CLK2 (UniProt P49760) -0.305, CLUAP1 (UniProt Q96AJ1) 0.077, CLN5 (UniProt O75503) 0.214, CMTM4 (UniProt Q8IZR5) 0.039, CMTR2 (UniProt Q8IYT2) 0.087, CLK1 isoform 3 (UniProt P49759) 0.22, CKMT2 (UniProt D6RHV3) -0.132

compound: NC1(c2ccc(-c3nc4ccn5c(=O)[nH]nc5c4cc3-c3ccccc3)cc2)CCC1; assay: as above
Summary of the method: as §1

log2 fold change, inactive:
CLIC6 (UniProt Q96NY7) -0.097, CMC4 (UniProt P56277) -0.061, CLIP2 (UniProt Q9UDT6) -0.045, CLCN6 isoform 5 (UniProt P51797) 0.045, CLCN5 isoform 2 (UniProt P51795) 0.089, CLCN2 (UniProt P51788) 0.044, CLEC11A (UniProt Q9Y240) -0.004, CLASP1 isoform 4 (UniProt Q7Z460) 0.111, CHTOP isoform 3 (UniProt Q9Y3Y2) 0.18, CLK3 (UniProt P49761) 0.062, CHCHD6 (UniProt Q9BRQ6) 0.134, CNBP (UniProt P62633) 0.049, CITED2 (UniProt Q99967) -0.022, CLUAP1 (UniProt Q96AJ1) -0.074, CLN5 (UniProt O75503) -0.049, CMTM4 (UniProt Q8IZR5) -0.028, CHST10 (UniProt O43529) 0.014, CHPF (UniProt Q8IZ52) 0.035, CHPF2 (UniProt Q9P2E5) 0.073, CLK1 isoform 3 (UniProt P49759) -0.042

— the supplement of paper PMC10849652
